PubChem BioAssay AID1259254 – NCATS – 2017

Aim: 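Genome-wide screen for genes that prevent DNA re-replication in cancer cells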 (primary screen)
System: human HCT116 colorectal cancer cells
Reagent: single siRNA against human genes
Timing: 3 days
Detection: 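Nuclei stained with Hoechst and imaged; cell-cycle phase assigned by DNA content; G2 share scaled per plate, non-targeting siRNA 0%, GMNN siRNA 100%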
Reading the numbers: G2 robust z-score and G2 cells, % of GMNN control: higher = more G2 cells, more excess DNA replication
Rule for the call: 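Active siRNAs have a G2 robust z of 5 or more median absolute deviations over the median, which in these data means about 38% or higher of GMNN control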
The deposit covers about 59,000 reagents; this is an unselected part. About 1,550 of all reagents (2.6%) count as active. 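G2 share is only a proxy for re-replication; each gene was hit by three separate siRNAs, and active genes were retested.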 Unmarked entries are inactive. The numbers tell different reagents against one gene apart. Further read-outs or replicates are left out here. The record does not give: the amount of reagent.

For REELD1 (reeler domain containing 1) #1, the values are G2 robust z-score 0.598; G2 cells, % of GMNN control 7.18. For REELD1 (reeler domain containing 1) #2, the values are G2 robust z-score -0.591; G2 cells, % of GMNN control -1.19. Against REELD1 (reeler domain containing 1) #3, the entry reads G2 robust z-score 0.687; G2 cells, % of GMNN control 7.8. RPS17P16 (ribosomal protein S17 pseudogene 16) #1 scored G2 robust z-score 4.44; G2 cells, % of GMNN control 34.2. RPS17P16 (ribosomal protein S17 pseudogene 16) #2 showed G2 robust z-score -0.968; G2 cells, % of GMNN control -3.85. For RPS17P16 (ribosomal protein S17 pseudogene 16) #3, the entry reads G2 robust z-score 2.1; G2 cells, % of GMNN control 17.7.

Silencing of RSRP1 (arginine and serine rich protein 1) #1 gave: G2 robust z-score 0.375; G2 cells, % of GMNN control 5.61. RSRP1 (arginine and serine rich protein 1) #2 gave G2 robust z-score 3.1; G2 cells, % of GMNN control 24.8. Knock-down of RSRP1 (arginine and serine rich protein 1) #3 resulted in: G2 robust z-score 0.2; G2 cells, % of GMNN control 4.38. MPRIP (myosin phosphatase Rho interacting protein) #1 scored G2 robust z-score -0.36; G2 cells, % of GMNN control 0.433. Silencing of MPRIP (myosin phosphatase Rho interacting protein) #2 came out at: G2 robust z-score -0.555; G2 cells, % of GMNN control -0.939. Depletion of MPRIP (myosin phosphatase Rho interacting protein) #3 came out at: G2 robust z-score -0.0681; G2 cells, % of GMNN control 2.49.

After knock-down of ANKRD36BP2 (ankyrin repeat domain 36B pseudogene 2) #1 the results were G2 robust z-score -0.154; G2 cells, % of GMNN control 1.88. ANKRD36BP2 (ankyrin repeat domain 36B pseudogene 2) #2 scored G2 robust z-score 0.256; G2 cells, % of GMNN control 4.77. With knock-down of ANKRD36BP2 (ankyrin repeat domain 36B pseudogene 2) #3, the record shows G2 robust z-score 3.02; G2 cells, % of GMNN control 24.2. Silencing of OR7D2 (olfactory receptor family 7 subfamily D member 2) #1 resulted in: G2 robust z-score 0.0688; G2 cells, % of GMNN control 3.45. For OR7D2 (olfactory receptor family 7 subfamily D member 2) #2, the entry reads G2 robust z-score 0.886; G2 cells, % of GMNN control 9.2. After knock-down of OR7D2 (olfactory receptor family 7 subfamily D member 2) #3, the screen gave G2 robust z-score 0.104; G2 cells, % of GMNN control 3.7.

For RASEF (RAS and EF-hand domain containing) #1 the deposit lists G2 robust z-score 1.31; G2 cells, % of GMNN control 12.2. RASEF (RAS and EF-hand domain containing) #2 gave G2 robust z-score -1.12; G2 cells, % of GMNN control -4.88. For RASEF (RAS and EF-hand domain containing) #3, the entry reads G2 robust z-score -0.381; G2 cells, % of GMNN control 0.288. Depletion of VCP (valosin containing protein) #1 resulted in: G2 robust z-score 0.174; G2 cells, % of GMNN control 4.19. VCP (valosin containing protein) #2 scored G2 robust z-score 0.423; G2 cells, % of GMNN control 5.95. With knock-down of VCP (valosin containing protein) #3, the screen gave G2 robust z-score 3.58; G2 cells, % of GMNN control 28.2.

Silencing of SAXO1 (stabilizer of axonemal microtubules 1) #1 resulted in: G2 robust z-score -0.215; G2 cells, % of GMNN control 1.46. Silencing of SAXO1 (stabilizer of axonemal microtubules 1) #2 resulted in: G2 robust z-score -0.159; G2 cells, % of GMNN control 1.85. Knock-down of SAXO1 (stabilizer of axonemal microtubules 1) #3 resulted in: G2 robust z-score 0.0412; G2 cells, % of GMNN control 3.26. LINC00997 (long independently transcribed non-coding RNA 997) #1 gave G2 robust z-score -0.258; G2 cells, % of GMNN control 1.15. Against LINC00997 (long independently transcribed non-coding RNA 997) #2, the values are G2 robust z-score -1.08; G2 cells, % of GMNN control -4.62. Knock-down of LINC00997 (long independently transcribed non-coding RNA 997) #3 gave: G2 robust z-score -0.649; G2 cells, % of GMNN control -1.6.

Records above whose gene name begins with A or a:
ANKRD36BP2 (ankyrin repeat domain 36B pseudogene 2) #1 → G2 robust z-score = -0.154; G2 cells, % of GMNN control = 1.88
ANKRD36BP2 (ankyrin repeat domain 36B pseudogene 2) #2 → G2 robust z-score = 0.256; G2 cells, % of GMNN control = 4.77
ANKRD36BP2 (ankyrin repeat domain 36B pseudogene 2) #3 → G2 robust z-score = 3.02; G2 cells, % of GMNN control = 24.2
